# Experimental data from PubChem BioAssay AID540276 (National Center for Advancing Translational Sciences (NCATS), 2011).
# Screen size: about 300,000 compounds; about 5,400 (1.8%) were called active. This list was built around the results that the source calls inconclusive (neither active nor inactive); the mix of calls is not that of the screen. Calls follow the shape of the full dose curve; tested in HEK293 cells. Potencies beside an inconclusive call are fits to weak or partial responses and may not hold up.
# Experiment: qHTS for inhibitors of binding or entry into cells for Marburg Virus
# Conditions: Marburg virus pseudotyped entry inhibition, cell reporter; series mostly up to 37.8 µM
# Potency is read from the fitted curve at half-maximal effect.
row,Compound,Potency
1,COc1ccc(NC(=O)CNc2ccc(C#N)cc2)cc1,"inconclusive: 1.41 µM [inhibitor, full curve, poor fit]"
2,CN1CCc2nc(SCC(=O)Nc3ccc(Cl)cc3)c(C#N)cc2C1,"inconclusive: 11.2 µM [activator, partial curve]"
3,O=[N+]([O-])c1cc(/C=N/N2CCN(C3c4ccccc4-c4ccccc43)CC2)ccc1Cl,inactive
4,CC(C)C12CN3CC(C(C)C)(CN(C1)C3c1ccc(Cl)cc1)C2=O (stereo not given),inactive
5,CC(=O)Nc1ccc(C2=NN(Cc3nnc(-c4ccccc4)o3)C(=O)SC2)cc1,inactive
6,CC1(C)Nc2ccccc2C(=O)N1c1ccccc1,inactive
7,O=C(CN1CCN(c2ccc(O)cc2)CC1)Nc1ccc(SC(F)F)cc1,"inconclusive: 7.31 µM [inhibitor, partial curve, poor fit]"
8,COc1ccc(-n2c(COc3ccc(C)cc3)nnc2SCc2ccc(C#N)cc2)cc1,"inconclusive: 29.1 µM [inhibitor, single point]"
9,Cc1cc(-n2ccnc2)n2c(nc3ccccc32)c1C#N,"inconclusive: 18.3 µM [inhibitor, single point]"
10,COc1cccc(N=c2oc3ccccc3cc2-c2nc3ccccc3[nH]2)c1,"inconclusive: 3.16 µM [activator, partial curve]"
11,CCCn1c(NC(=O)C2CCN(C(=O)c3ccccc3C)CC2)nc2ccccc21,"inconclusive: 11.2 µM [inhibitor, partial curve, poor fit]"
12,O=C1CC(N2CCN(c3ccc(O)cc3)CC2)C(=O)N1Cc1cccs1 (stereo not given),inactive
13,CCOC(=O)c1c(C)nc2sc(C(=O)Nc3ccccc3)c(N)c2c1-c1ccc(OC)cc1,"inconclusive: 7.94 µM [inhibitor, partial curve, poor fit]"
14,CCc1ccccc1NC(=O)c1cc2ncc(Br)cn2n1,inactive
15,O=C(Cn1cc(C(=O)c2ccco2)c2ccccc21)NC1CCCCC1,inactive
16,COc1ccc(CCNC(=O)COc2ccc3c(C)cc(=O)oc3c2)cc1,inactive
17,Cc1cccc2cc(-c3ccccc3)c(-c3ccccc3)c[n+]12,"inconclusive: 11.2 µM [inhibitor, partial curve, poor fit]"
18,Cc1cccc(C2NC(=O)c3ccccc3N2)c1 (stereo not given),"inconclusive: 3.98 µM [inhibitor, partial curve, poor fit]"
19,COC(CNC(=O)c1ccc2nc(-c3cccs3)c(-c3cccs3)nc2c1)OC,"inconclusive: 1.58 µM [inhibitor, partial curve, poor fit]"
20,O=C(Nc1ccn(Cc2ccccc2F)n1)c1ccc(COc2cc(Cl)ccc2Cl)o1,"inconclusive: 10.3 µM [inhibitor, partial curve, poor fit]"
21,O=C(Oc1ccccc1/C=C\C(=O)c1cc2ccccc2o1)c1cccc(F)c1,"inconclusive: 35.5 µM [inhibitor, single point]"
22,CCCCC/C=N/NC(=O)c1[nH]c2ccc([N+](=O)[O-])cc2c1C,"inconclusive: 35.5 µM [inhibitor, single point]"

row,Compound,Potency
1,O=C(CCCCCNc1nc(=S)[nH]c2ccccc12)NCCC1=CCCCC1,inactive
2,Cc1c(Cl)cccc1NC(=S)C(=C([O-])c1ccc(Cl)s1)[n+]1ccccc1,"inconclusive: 6.31 µM [inhibitor, full curve, poor fit]"
3,COc1ccc(CC(=O)NC(C)c2nnc(SCC(=O)c3ccc(Br)cc3)n2C)cc1 (stereo not given),inactive
4,Cn1c2c(c(=O)n(C)c1=O)CN(CCc1ccccc1)CN2,"inconclusive: 31.6 µM [activator, partial curve, poor fit]"
5,COc1cc(/C=C/C(=O)OCC(=O)NCc2ccc(F)cc2)ccc1O,"inconclusive: 0.562 µM [inhibitor, full curve, poor fit]"
6,CN(Cc1nc(-c2ccc(Cl)cc2)no1)C(=O)c1ccco1,"inconclusive: 35.5 µM [inhibitor, single point]"
7,O=C(NCCCN1CCCC1=O)Nc1ccc(F)c(Cl)c1,inactive
8,COc1ccc(OC)c(C2C(C#N)=C(N)Oc3cc(N)ccc32)c1 (stereo not given),"inconclusive: 29.1 µM [inhibitor, partial curve, poor fit]"
9,N#CCCNS(=O)(=O)c1ccc(C(=O)OCC2CCCCC2)cc1,"inconclusive: 6.31 µM [activator, single point]"
10,CNS(=O)(=O)c1cccc(C(=O)NNC(=O)CN(C)S(=O)(=O)c2ccc(Cl)cc2)c1,"inconclusive: 0.794 µM [activator, full curve]"
11,CCC(C)(C)n1nnnc1C(C(C)C)N1CCN(C(=O)c2ccco2)CC1 (stereo not given),"inconclusive: 10 µM [inhibitor, partial curve, poor fit]"
12,CCCCCNC(=O)c1ccc2c(=O)n(CCOC)c(=O)[nH]c2c1,"inconclusive: 0.562 µM [inhibitor, full curve, poor fit]"
13,O=C(O)c1ccccc1C(=O)Nc1cc(-c2ccccc2)[nH]n1,"inconclusive: 3.55 µM [inhibitor, single point]"
14,O=C(Nc1cccc(F)c1)C1CCN(C(=O)NCc2ccccc2)CC1,inactive
15,O=C(COC(=O)c1ccccc1SCC(=O)N1CCCC1)NC1CCS(=O)(=O)C1 (stereo not given),"inconclusive: 1.78 µM [inhibitor, single point]"
16,COc1ccc(-n2c(=O)c3c4c(sc3n(Cc3cc(C)ccc3C)c2=O)CN(C(C)=O)CC4)c(OC)c1,"inconclusive: 22.4 µM [inhibitor, single point]"
17,CCOC(=O)C1(Cc2ccccc2)CCN(Cc2cnn(-c3ccccc3)c2)CC1,"inconclusive: 12.6 µM [inhibitor, partial curve, poor fit]"
18,OC(COC(c1ccccc1)c1ccccc1)CN1CCc2ccccc2C1 (stereo not given),"inconclusive: 29.1 µM [inhibitor, single point]"
19,CCN(CC)CCCNc1nc2cc(OC)c(OC)cc2c2nc(-c3cccnc3)nn12,"inconclusive: 2.59 µM [inhibitor, full curve]"
20,CC1=C(CC(=O)O)c2cc(F)ccc2/C1=C\c1ccc(S(C)=O)cc1 (stereo not given),"inconclusive: 35.5 µM [inhibitor, single point]"
21,Cc1cccc(-c2noc(-c3cccnc3NCc3ccco3)n2)c1,inactive
22,COC(=O)C1=C(N)Oc2cc(C)n(Cc3ccco3)c(=O)c2C1c1cccc(Cl)c1 (stereo not given),"inconclusive: 20 µM [inhibitor, single point]"

# Copied from the listing for reference:
row,Compound,Potency
14,CCc1ccccc1NC(=O)c1cc2ncc(Br)cn2n1,inactive
15,O=C(Cn1cc(C(=O)c2ccco2)c2ccccc21)NC1CCCCC1,inactive
16,COc1ccc(CCNC(=O)COc2ccc3c(C)cc(=O)oc3c2)cc1,inactive
17,Cc1cccc2cc(-c3ccccc3)c(-c3ccccc3)c[n+]12,"inconclusive: 11.2 µM [inhibitor, partial curve, poor fit]"
18,Cc1cccc(C2NC(=O)c3ccccc3N2)c1 (stereo not given),"inconclusive: 3.98 µM [inhibitor, partial curve, poor fit]"

# (list continues)

row,Compound,Potency
1,COC(=O)c1c(NC(=O)CSc2ccccc2N)sc(C)c1C,"inconclusive: 8.91 µM [inhibitor, partial curve, poor fit]"
2,CC(C)c1ccc(OCC(=O)Nc2c(Cl)ccc3nsnc23)cc1,"inconclusive: 35.5 µM [inhibitor, single point]"
3,O=S(=O)(c1ccccc1)N1CCN=C1SCc1ccccc1,"inconclusive: 7.94 µM [inhibitor, partial curve, poor fit]"
4,COc1cccc(NC(=O)C2CSC3(C)CCC(=O)N23)c1 (stereo not given),inactive
5,O=C(Nc1ccc(Cl)cc1)N1CC1,"inconclusive: 31.6 µM [activator, single point]"
6,CCCC(C)NC(=O)CSc1nnc2ccccn12 (stereo not given),"inconclusive: 0.562 µM [inhibitor, full curve, poor fit]"
7,CC(Cl)C(=O)Nc1cc(C(F)(F)F)ccc1N1CCOCC1 (stereo not given),"inconclusive: 11.2 µM [activator, single point]"
8,O=S(=O)(c1ccccc1)c1nc(Nc2cccc(O)c2)sc1Cl,"inconclusive: 9.2 µM [inhibitor, partial curve, poor fit]"
9,Cc1ccc(OCc2nnc(SCC(=O)Nc3sc(C)c(C)c3C#N)n2C)cc1,"inconclusive: 16.4 µM [inhibitor, partial curve, poor fit]"
10,CC(=O)N1CCCc2cc(S(=O)(=O)N3CCN(c4ccccn4)CC3)ccc21,"inconclusive: 4.47 µM [inhibitor, full curve, poor fit]"
11,Cc1cccc(N2CCN(C(=O)n3ccnc3)CC2)c1C,"inconclusive: 18.3 µM [inhibitor, partial curve, poor fit]"
12,c1coc(-c2cc(C3CCNCC3)[nH]n2)c1,"inconclusive: 7.94 µM [inhibitor, partial curve, poor fit]"
13,CN(c1ccccc1)S(=O)(=O)c1cccc(NC(=O)CN2CCc3ccccc3C2)c1,"inconclusive: 35.5 µM [inhibitor, single point]"
14,CN(c1ccccc1)S(=O)(=O)c1ccc(C(=O)OCC(=O)NCc2ccco2)cc1,"inconclusive: 0.316 µM [activator, partial curve, poor fit]"
15,CCN(CC)CCOC(=O)/C=C/c1ccccc1,inactive
16,COc1ccc(C(C(=O)NC2CCCC2)N(C(=O)c2snc(-c3ccc(F)cc3)c2N)c2ccc(OC)cc2)cc1 (stereo not given),inactive
17,Cc1cccc(OCCSc2nc3ncnc(N)c3[nH]2)c1,"inconclusive: 0.562 µM [inhibitor, full curve, poor fit]"
18,C=CCn1c(C)cc(C(=O)CSc2nc3ccccc3o2)c1C,active: 13 µM
19,COc1ccc(N2CCN(C(=O)c3oc4ccccc4c3NC(=O)Cc3cccc(OC)c3)CC2)cc1,"inconclusive: 10 µM [inhibitor, partial curve, poor fit]"
20,O=C(c1ccco1)N1CCN(c2ccc([N+](=O)[O-])c(N3CCOCC3)c2)CC1,"inconclusive: 28.2 µM [inhibitor, partial curve, poor fit]"
21,CCN(CC)C(=O)COc1coc(CN2CCN(c3ccccc3F)CC2)cc1=O,inactive
